Experimental data: paper PMC10394025
Results are given in words; binding and its absence hold for the method and conditions named. In cells and extracts the contact can be indirect. A yes stands for co-enrichment or nearness to the bait. Other partners may have been found. Tags and fused reporters may be left off the sequences shown. Each block holds one binder with its values, some of them ahead of it.

Molecular target: T1, USP15 immunoprecipitated with a FLAG antibody from AML12 cells (bait of the interactome analysis) (UniProt Q8R5H1)
T1 sequence: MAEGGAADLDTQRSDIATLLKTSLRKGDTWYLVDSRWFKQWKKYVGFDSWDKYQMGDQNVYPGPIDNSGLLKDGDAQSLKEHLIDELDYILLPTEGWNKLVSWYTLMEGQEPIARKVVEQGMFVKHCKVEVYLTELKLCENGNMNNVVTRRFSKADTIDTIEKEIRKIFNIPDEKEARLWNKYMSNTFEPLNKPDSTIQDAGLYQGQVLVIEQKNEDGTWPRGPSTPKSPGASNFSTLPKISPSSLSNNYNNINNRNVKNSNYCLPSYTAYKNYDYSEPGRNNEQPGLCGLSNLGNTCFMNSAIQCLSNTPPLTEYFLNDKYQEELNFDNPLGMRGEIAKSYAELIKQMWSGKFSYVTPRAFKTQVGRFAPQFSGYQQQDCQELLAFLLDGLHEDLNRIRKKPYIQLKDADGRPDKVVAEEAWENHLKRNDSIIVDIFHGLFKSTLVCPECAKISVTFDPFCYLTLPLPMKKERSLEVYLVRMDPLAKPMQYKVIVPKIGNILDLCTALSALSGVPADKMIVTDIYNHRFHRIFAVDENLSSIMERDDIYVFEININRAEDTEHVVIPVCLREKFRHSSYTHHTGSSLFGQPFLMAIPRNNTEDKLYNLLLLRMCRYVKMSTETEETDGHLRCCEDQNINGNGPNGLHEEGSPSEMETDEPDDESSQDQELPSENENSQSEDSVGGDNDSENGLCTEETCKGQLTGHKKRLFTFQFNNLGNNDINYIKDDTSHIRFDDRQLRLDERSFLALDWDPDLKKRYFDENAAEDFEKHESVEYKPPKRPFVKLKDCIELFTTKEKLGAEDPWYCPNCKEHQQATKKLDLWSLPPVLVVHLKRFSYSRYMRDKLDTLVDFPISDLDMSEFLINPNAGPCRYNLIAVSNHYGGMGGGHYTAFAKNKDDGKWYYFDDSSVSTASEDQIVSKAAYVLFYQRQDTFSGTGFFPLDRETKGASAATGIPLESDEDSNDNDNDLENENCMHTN
Assay: affinity purification with mass spectrometry; USP15 immunoprecipitation (FLAG antibody) from AML12 cells; eluates separated by SDS-PAGE, in-gel digestion, LC-MS/MS

binding: binds
B1: Perilipin2 (endogenous, AML12 cells) (protein, UniProt P43883 1-425)
chain: MAAAVVDPQQSVVMRVANLPLVSSTYDLVSSAYVSTKDQYPYLRSVCEMAEKGVKTVTSAAMTSALPIIQKLEPQIAVANTYACKGLDRMEERLPILNQPTSEIVASARGAVTGAKDVVTTTMAGAKDSVASTVSGVVDKTKGAVTGSVERTKSVVNGSINTVLGMVQFMNSGVDNAITKSELLVDQYFPLTQEELEMEAKKVEGFDMVQKPSNYERLESLSTKLCSRAYHQALSRVKEAKQKSQETISQLHSTVHLIEFARKNMHSANQKIQGAQDKLYVSWVEWKRSIGYDDTDESHCVEHIESRTLAIARNLTQQLQTTCQTVLVNAQGLPQNIQDQAKHLGVMAGDIYSVFRNAASFKEVSDGVLTSSKGQLQKMKESLDEVMDYFVNNTPLNWLVGPFYPQSTEVNKASLKVQQSEVKAQ

binding: binds
B2: FABP4 (endogenous, AML12 cells) (protein, UniProt P04117 1-132)
chain: MCDAFVGTWKLVSSENFDDYMKEVGVGFATRKVAGMAKPNMIISVNGDLVTIRSESTFKNTEISFKLGVEFDEITADDRKVKSIITLDGGALVQVQKWDGKSTTIKRKRDGDKLVVECVMKGVTSTRVYERA
